No constants are given. Whether binding was seen depends on the method and setting. Some binding calls cover weakened binding; strength is not graded here.
Experiments:
[1] = target: HER3 extracellular domain (ECD) (R&D Systems) (human) (UniProt P21860); test: phage binding to HER3, normalized to parent phage
[2] = target: HER3 extracellular domain (ECD) (R&D Systems) (human) (UniProt P21860); test: phage ELISA on HER3 ECD

By UniProt entry, the sequences of proteins in these tests, tags left out. Residues count along the entry.
UniProt P21860, residues 20-643: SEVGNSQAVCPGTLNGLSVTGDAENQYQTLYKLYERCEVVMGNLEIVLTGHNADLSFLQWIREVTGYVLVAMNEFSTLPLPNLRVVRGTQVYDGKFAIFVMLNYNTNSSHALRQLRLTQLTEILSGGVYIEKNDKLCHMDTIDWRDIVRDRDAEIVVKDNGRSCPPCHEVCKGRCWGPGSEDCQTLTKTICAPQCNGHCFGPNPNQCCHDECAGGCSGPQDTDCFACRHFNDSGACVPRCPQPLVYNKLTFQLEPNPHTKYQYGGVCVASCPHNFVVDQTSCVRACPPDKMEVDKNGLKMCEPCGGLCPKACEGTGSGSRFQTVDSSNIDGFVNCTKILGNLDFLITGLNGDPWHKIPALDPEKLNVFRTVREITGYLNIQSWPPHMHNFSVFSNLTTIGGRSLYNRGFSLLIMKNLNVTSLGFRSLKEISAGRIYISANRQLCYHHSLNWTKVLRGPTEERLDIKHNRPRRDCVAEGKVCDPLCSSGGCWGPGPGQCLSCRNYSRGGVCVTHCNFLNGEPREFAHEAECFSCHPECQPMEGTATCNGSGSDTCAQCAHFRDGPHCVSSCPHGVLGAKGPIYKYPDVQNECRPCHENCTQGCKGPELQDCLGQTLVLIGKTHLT

| Binder | binding [1] | binding [2] |
| --- | --- | --- |
| CLPTAFRSC (peptide, not shown: large carriers) [phage M4 (alanine mutant at position 5 of the HER3P1 binding sequence)] | binds |  |
| CLPTKARSC (peptide, not shown: large carriers) [phage M5 (alanine mutant at position 6 of the HER3P1 binding sequence)] | binds |  |
| CLPTKFRSC (peptide, not shown: large carriers) [phage displaying the HER3P1 peptide (phages 1, 5, 17, 19, 26)] |  | binds |
